PubChem BioAssay AID493246 | Drosophila RNAi Screening Center, 2011

Test: 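Identify essential fly genes by loss of cell viability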 (primary screen)
Cells: Drosophila Kc and S2R+ cells
Reagent: long dsRNA against Drosophila genes
Measured: 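Raw, unnormalised count of remaining cells in each well; per-plate z-scores of cell number underlie the calls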
Reading the numbers: Kc cell number and S2R+ cell number: higher = more cells remaining
Active means: 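Active when the per-plate z-score of cell number is 3 or more in the direction of fewer cells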
The deposit covers about 21,000 reagents; below is a random part of those that have a named target and a result. In the full data, 429 (2%) were called active. 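Values are raw and not normalised between plates; calls rest on per-plate z-scores that were not deposited.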 The record does not give: the amount of reagent, the time to read-out.

p115 [DRSC18813]
- Kc cell number, rep 1: 1.46e6
- Kc cell number, rep 2: 1.44e6
- S2R+ cell number, rep 1: 1.01e6
- S2R+ cell number, rep 2: 1.17e6
- outcome: inactive

CG15602 [DRSC19671]
- Kc cell number, rep 1: 1.53e6
- Kc cell number, rep 2: 1.55e6
- S2R+ cell number, rep 1: 1.07e6
- S2R+ cell number, rep 2: 1.13e6
- outcome: inactive

mod [DRSC16999]
- Kc cell number, rep 1: 5.42e5
- S2R+ cell number, rep 1: 8.41e5
- outcome: inactive

CecC [DRSC16606]
- Kc cell number, rep 1: 1.58e6
- Kc cell number, rep 2: 1.62e6
- S2R+ cell number, rep 1: 1.03e6
- S2R+ cell number, rep 2: 1.15e6
- outcome: inactive

CG18132 [DRSC00518]
- Kc cell number, rep 1: 1.62e6
- Kc cell number, rep 2: 1.70e6
- S2R+ cell number, rep 1: 1.09e6
- S2R+ cell number, rep 2: 1.18e6
- outcome: inactive

CG10384 [DRSC03933]
- Kc cell number, rep 1: 5.78e5
- S2R+ cell number, rep 1: 8.61e5
- outcome: inactive

CG10384 [DRSC04067]
- Kc cell number, rep 1: 1.44e6
- Kc cell number, rep 2: 1.43e6
- S2R+ cell number, rep 1: 9.24e5
- S2R+ cell number, rep 2: 1.07e6
- outcome: inactive

Reprinted from the listing (2 entries):
mod [DRSC16999]
- Kc cell number, rep 1: 5.42e5
- S2R+ cell number, rep 1: 8.41e5
- outcome: inactive

CecC [DRSC16606]
- Kc cell number, rep 1: 1.58e6
- Kc cell number, rep 2: 1.62e6
- S2R+ cell number, rep 1: 1.03e6
- S2R+ cell number, rep 2: 1.15e6
- outcome: inactive

The listing continues.
Rpp25 [DRSC05002]
- Kc cell number, rep 1: 1.68e6
- Kc cell number, rep 2: 1.80e6
- S2R+ cell number, rep 1: 1.34e6
- S2R+ cell number, rep 2: 1.45e6
- outcome: inactive

CG5815 [DRSC14135]
- Kc cell number, rep 1: 1.63e6
- Kc cell number, rep 2: 1.67e6
- S2R+ cell number, rep 1: 1.03e6
- S2R+ cell number, rep 2: 1.11e6
- outcome: inactive

CG10333 [DRSC02036]
- Kc cell number, rep 1: 1.37e6
- Kc cell number, rep 2: 1.51e6
- S2R+ cell number, rep 1: 1.14e6
- S2R+ cell number, rep 2: 1.08e6
- outcome: inactive

CG10839 [DRSC01965]
- Kc cell number, rep 1: 1.56e6
- Kc cell number, rep 2: 1.60e6
- S2R+ cell number, rep 1: 1.29e6
- S2R+ cell number, rep 2: 1.52e6
- outcome: inactive

CG2063 [DRSC06811]
- Kc cell number, rep 1: 1.61e6
- Kc cell number, rep 2: 1.64e6
- S2R+ cell number, rep 1: 1.18e6
- S2R+ cell number, rep 2: 1.26e6
- outcome: inactive
